This assay deals with T1, 3xFlag-TST (Twin-Strep-tag)-tagged Tmem138 (mouse) (UniProt Q9D6G5).
T1 sequence: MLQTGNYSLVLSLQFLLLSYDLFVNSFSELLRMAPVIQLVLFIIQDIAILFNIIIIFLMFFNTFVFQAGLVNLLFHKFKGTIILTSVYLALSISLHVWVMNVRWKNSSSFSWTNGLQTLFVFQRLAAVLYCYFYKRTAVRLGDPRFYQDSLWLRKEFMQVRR
Put plainly: pull-down.

The chains behind the UniProt entries cited, without tags or fusion partners.
UniProt Q640N2: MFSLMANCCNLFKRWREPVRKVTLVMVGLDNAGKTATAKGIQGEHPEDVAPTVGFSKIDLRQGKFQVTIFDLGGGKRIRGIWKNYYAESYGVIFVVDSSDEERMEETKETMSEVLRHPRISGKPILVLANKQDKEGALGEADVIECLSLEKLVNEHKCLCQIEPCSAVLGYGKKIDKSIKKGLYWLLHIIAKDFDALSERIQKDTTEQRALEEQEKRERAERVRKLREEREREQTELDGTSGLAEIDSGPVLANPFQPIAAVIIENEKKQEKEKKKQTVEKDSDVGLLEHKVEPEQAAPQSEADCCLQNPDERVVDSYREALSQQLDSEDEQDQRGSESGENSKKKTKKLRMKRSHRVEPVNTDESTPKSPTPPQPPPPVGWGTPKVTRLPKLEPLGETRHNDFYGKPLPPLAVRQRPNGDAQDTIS
UniProt P55258: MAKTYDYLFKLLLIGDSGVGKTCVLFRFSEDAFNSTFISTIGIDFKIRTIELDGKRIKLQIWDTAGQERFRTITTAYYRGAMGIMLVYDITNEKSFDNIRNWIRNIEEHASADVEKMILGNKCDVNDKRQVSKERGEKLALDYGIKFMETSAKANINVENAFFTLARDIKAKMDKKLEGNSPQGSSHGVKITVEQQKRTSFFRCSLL

These are yes or no findings as the source states them, for the method shown. In cells and extracts the contact can be indirect. Tags and fused reporters may be left off the sequences shown.

Regarding Arl13b-Flag (from UniProt Q640N2 1-427), the binding result was “no binding”. Under Rab8a-Flag (from UniProt P55258 1-207) stands “no binding”.

(Values after paper doi:10.1101/2021.05.22.445289.)
